# Source: the supplement of paper PMC10849652
# Protein sequences, listed by entry. Tags and fused reporters are not part of them. Lines headed by an entry give the natural chain unless they say otherwise; changes in a name come on top.
# UniProt Q9C0K1: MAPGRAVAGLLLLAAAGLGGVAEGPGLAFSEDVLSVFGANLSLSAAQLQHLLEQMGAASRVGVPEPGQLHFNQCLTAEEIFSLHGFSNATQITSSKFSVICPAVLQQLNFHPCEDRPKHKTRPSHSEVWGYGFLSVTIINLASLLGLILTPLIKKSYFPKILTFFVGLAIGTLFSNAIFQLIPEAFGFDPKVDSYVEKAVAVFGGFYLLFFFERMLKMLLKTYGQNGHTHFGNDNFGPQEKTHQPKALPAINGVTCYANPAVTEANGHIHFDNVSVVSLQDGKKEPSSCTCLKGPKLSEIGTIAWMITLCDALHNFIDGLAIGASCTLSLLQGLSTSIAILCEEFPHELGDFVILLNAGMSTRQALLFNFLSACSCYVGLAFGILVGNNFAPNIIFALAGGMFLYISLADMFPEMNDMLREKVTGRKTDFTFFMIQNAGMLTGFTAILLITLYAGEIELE
# UniProt P78383: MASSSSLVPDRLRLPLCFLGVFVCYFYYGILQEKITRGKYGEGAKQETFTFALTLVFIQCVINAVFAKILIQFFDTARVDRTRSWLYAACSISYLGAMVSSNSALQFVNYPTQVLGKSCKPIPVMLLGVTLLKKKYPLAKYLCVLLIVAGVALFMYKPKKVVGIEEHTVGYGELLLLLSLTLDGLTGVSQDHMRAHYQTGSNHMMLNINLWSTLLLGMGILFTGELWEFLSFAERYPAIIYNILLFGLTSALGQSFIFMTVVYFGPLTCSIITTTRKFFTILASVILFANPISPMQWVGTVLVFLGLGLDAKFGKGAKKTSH
# UniProt Q9Y2D2: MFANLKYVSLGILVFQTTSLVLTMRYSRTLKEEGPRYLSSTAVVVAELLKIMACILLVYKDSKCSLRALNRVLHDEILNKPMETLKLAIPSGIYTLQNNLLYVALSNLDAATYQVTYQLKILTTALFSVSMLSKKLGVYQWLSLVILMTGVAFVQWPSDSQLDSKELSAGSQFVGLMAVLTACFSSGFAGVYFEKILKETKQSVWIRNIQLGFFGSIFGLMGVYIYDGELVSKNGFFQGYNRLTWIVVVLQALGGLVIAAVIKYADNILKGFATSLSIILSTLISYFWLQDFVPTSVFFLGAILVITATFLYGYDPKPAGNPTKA
# UniProt Q96CQ1: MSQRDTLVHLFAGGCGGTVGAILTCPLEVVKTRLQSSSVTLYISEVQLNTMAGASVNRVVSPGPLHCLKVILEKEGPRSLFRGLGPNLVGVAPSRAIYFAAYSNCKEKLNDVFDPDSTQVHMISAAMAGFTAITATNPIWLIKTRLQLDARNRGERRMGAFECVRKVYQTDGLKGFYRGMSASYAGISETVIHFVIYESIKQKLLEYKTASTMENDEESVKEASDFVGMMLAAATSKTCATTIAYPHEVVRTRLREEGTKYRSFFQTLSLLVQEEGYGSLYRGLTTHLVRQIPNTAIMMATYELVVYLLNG
# UniProt Q9NP59: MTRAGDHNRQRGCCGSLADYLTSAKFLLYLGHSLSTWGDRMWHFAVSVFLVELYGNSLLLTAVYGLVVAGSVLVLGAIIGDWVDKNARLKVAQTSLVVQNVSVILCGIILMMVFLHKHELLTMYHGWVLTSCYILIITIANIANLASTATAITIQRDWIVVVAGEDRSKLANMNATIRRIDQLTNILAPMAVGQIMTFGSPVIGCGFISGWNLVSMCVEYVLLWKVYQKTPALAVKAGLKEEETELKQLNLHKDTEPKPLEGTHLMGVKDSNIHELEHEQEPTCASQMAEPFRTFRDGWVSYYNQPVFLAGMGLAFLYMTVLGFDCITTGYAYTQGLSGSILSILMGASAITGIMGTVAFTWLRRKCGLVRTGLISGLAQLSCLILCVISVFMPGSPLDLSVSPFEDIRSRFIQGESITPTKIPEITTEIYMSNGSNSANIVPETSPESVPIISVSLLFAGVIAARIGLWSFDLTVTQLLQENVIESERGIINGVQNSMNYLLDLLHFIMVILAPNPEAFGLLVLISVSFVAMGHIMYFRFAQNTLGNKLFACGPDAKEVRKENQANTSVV
# UniProt Q9UGH3: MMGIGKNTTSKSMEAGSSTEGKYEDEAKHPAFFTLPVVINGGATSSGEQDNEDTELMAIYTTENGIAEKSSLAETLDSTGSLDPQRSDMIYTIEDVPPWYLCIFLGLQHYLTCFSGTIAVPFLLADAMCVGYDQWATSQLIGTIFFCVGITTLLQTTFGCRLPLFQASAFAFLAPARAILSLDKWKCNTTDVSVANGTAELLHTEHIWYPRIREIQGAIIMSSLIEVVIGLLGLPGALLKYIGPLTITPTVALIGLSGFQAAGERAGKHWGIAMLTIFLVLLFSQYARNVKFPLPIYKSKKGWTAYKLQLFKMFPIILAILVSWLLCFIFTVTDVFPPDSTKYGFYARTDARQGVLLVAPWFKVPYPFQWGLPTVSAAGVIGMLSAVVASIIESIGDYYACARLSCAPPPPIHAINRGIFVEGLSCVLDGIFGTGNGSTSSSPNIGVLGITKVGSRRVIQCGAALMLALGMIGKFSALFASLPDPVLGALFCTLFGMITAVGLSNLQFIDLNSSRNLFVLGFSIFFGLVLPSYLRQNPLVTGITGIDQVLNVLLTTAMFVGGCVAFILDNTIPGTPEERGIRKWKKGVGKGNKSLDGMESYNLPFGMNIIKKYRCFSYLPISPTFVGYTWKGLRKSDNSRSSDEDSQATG
# UniProt Q8IVJ1: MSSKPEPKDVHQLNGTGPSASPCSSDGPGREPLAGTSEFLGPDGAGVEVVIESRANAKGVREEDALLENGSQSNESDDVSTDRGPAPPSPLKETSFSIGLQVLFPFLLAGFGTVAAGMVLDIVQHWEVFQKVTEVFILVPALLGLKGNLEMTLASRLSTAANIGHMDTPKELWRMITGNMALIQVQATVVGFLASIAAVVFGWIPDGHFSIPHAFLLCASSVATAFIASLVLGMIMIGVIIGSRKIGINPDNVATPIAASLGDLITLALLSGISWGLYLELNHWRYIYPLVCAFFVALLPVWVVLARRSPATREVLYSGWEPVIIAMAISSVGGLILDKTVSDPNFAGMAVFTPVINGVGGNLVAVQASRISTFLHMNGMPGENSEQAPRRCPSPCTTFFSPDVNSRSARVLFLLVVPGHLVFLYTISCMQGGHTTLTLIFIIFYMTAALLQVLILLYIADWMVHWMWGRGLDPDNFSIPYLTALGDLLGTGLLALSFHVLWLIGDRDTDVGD
# UniProt Q0VAQ4: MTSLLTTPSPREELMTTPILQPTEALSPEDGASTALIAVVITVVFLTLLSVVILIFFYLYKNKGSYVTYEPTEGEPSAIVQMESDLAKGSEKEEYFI
# UniProt Q9BRV3: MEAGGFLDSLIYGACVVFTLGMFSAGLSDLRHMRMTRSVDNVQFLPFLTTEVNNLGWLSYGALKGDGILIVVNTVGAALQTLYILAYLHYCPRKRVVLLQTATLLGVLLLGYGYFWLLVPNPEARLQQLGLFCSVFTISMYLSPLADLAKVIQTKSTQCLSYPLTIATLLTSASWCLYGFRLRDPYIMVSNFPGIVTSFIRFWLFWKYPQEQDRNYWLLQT
# UniProt Q9BV35: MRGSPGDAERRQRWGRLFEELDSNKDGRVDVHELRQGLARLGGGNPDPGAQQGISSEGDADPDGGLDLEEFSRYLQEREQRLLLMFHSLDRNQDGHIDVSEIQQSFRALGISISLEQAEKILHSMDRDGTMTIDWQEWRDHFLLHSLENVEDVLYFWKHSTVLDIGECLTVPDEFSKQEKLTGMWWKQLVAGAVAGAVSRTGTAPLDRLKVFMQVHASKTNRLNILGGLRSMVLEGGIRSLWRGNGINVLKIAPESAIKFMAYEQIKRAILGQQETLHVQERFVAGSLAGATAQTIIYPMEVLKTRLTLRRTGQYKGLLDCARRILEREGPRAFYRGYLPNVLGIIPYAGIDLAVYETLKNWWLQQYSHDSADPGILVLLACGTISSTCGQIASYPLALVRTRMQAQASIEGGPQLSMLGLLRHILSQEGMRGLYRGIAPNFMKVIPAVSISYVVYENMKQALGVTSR
# UniProt Q99717: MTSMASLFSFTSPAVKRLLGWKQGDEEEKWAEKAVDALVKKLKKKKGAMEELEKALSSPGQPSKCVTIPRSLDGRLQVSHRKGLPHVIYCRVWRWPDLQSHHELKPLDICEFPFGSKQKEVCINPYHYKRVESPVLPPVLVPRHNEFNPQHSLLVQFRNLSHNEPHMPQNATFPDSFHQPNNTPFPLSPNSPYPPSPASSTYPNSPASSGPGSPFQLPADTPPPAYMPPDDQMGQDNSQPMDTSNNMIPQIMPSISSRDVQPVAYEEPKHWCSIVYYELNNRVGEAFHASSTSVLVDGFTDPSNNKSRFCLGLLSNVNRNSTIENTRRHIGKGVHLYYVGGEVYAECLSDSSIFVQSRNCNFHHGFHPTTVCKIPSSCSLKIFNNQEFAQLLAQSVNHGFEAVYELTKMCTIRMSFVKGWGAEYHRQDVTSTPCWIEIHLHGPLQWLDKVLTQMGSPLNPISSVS
# UniProt O95391: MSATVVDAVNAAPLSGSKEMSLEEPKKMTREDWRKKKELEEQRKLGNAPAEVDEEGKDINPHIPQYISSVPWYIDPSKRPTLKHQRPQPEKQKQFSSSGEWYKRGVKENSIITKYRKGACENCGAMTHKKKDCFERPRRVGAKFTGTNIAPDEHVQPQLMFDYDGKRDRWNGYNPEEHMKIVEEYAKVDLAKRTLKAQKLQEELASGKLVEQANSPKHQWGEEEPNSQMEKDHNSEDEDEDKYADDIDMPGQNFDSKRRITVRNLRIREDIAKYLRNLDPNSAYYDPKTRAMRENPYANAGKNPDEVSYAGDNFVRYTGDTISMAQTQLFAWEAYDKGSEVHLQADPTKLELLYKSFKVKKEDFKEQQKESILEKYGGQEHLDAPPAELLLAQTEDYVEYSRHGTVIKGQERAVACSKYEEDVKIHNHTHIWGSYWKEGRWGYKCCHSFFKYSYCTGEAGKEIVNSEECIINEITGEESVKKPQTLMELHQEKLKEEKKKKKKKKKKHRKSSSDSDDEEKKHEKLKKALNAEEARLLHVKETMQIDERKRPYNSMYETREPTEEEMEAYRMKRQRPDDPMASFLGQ
# UniProt P0C7P3: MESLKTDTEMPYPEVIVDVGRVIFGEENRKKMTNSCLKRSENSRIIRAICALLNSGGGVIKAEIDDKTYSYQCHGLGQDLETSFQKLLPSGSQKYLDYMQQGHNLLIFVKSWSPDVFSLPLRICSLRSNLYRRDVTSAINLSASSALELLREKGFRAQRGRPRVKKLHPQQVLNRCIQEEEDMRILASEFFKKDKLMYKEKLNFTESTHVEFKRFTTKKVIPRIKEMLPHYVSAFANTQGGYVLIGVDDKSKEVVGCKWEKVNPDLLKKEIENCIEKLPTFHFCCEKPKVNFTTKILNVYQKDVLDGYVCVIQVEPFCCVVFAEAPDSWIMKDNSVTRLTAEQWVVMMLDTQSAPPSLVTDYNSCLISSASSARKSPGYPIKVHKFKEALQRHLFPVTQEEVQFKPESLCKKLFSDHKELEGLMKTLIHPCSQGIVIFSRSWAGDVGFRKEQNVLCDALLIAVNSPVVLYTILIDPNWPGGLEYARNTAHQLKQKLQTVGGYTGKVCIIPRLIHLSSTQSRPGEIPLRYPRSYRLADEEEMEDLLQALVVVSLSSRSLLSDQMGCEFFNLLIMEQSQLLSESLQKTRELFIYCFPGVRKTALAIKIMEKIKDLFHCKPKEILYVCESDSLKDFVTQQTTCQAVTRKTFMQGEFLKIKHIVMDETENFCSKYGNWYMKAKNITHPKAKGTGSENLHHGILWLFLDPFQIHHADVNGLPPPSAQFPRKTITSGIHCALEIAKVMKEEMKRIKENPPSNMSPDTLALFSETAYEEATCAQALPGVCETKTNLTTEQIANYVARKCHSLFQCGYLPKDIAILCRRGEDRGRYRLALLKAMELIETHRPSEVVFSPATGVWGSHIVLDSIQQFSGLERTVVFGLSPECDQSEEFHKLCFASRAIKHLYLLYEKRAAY
# UniProt P78382: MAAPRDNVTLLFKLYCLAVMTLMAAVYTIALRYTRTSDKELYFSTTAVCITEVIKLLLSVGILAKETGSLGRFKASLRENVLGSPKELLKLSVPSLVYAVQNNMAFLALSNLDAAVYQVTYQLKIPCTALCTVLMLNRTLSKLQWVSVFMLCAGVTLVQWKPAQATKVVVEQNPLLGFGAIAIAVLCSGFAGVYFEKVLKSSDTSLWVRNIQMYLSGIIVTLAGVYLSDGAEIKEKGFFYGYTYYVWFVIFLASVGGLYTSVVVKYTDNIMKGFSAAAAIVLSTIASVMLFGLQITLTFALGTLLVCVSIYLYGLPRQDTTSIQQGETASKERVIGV
# UniProt Q3KQZ1: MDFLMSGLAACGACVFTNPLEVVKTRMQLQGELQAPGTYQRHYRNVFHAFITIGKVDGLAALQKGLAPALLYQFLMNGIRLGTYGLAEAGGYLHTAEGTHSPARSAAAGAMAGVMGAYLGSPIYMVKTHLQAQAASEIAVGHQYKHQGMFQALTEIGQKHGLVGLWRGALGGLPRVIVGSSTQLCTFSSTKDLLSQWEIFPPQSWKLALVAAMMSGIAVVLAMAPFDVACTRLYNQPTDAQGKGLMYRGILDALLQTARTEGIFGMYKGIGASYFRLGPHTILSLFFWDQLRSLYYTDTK
# This is one part of the list.
# Compound: CS(=O)(=O)CCNCc1ccc(-c2ccc3ncnc(Nc4ccc(OCc5cccc(F)c5)c(Cl)c4)c3c2)o1 [lapatinib]
# Test: log2 fold change, soluble protein after heating vs DMSO (PISA); higher = thermal stabilisation; K562 lysate, 10 uM; active = over 0.2 and 3.5 SD of the protein, either way, in both replicates (recomputed)
# Method in brief: (§1)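 Following dounce homogenisation of K562 pellets in PBS pH 7.4 with 1 mM MgCl2, crude extract at 1 mg/mL protein was incubated for 30 min with 10 μM compound. Aliquots were then heated for 3 min over 48°C-58°C and pooled, NP-40 was added to 0.5% at 4°C, and soluble protein was recovered as the supernatant at 21,000xg for 90 min. Channel-sum-equalised TMTpro 16plex LC-MS/MS quantified this protein. Each value, from duplicates, is a log-two fold change in thermal stability relative to solvent controls.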
row,Target,log2 fold change
1,SLC46A1 (UniProt Q96NT5),inactive: 0.074
2,SLC39A8 (UniProt Q9C0K1),inactive: 0.014
3,SLC66A3 (UniProt Q8N755),inactive: 0.014
4,SLC35B1 isoform 2 (UniProt P78383),inactive: -0.059
5,SLC35A3 isoform 2 (UniProt Q9Y2D2),inactive: -0.097
6,SLC25A36 (UniProt Q96CQ1),inactive: -0.019
7,SLC40A1 (UniProt Q9NP59),inactive: -0.019
8,SLC23A2 (UniProt Q9UGH3),inactive: -0.237
9,SLC43A3 (UniProt Q8NBI5),inactive: 0.169
10,SLC9B2 (UniProt Q86UD5),inactive: 0.042
11,SLC41A1 (UniProt Q8IVJ1),inactive: -0.059
12,SMAD3 (UniProt P84022),inactive: 0.037
13,SLC39A6 (UniProt Q13433),inactive: -0.006
14,SMAGP (UniProt Q0VAQ4),inactive: 0.05
15,SLC29A3 (UniProt Q9BZD2),inactive: 0
16,SLC50A1 (UniProt Q9BRV3),inactive: -0.161
17,SLC25A23 isoform 3 (UniProt Q9BV35),inactive: -0.098
18,SLC8B1 (UniProt Q6J4K2),inactive: -0.042
19,SLC66A2 (UniProt Q8N2U9),inactive: -0.049

# Compound: CS(=O)(=O)N1CCN(Cc2cc3nc(-c4cccc5[nH]ncc45)nc(N4CCOCC4)c3s2)CC1 [pictilisib]
# Test: as above
# Method in brief: as §1
row,Target,log2 fold change
1,SMAD5 (UniProt Q99717),inactive: -0.036
2,SLU7 (UniProt O95391),inactive: 0.006
3,SLC43A3 (UniProt Q8NBI5),inactive: -0.337
4,SLC41A3 isoform 9 (UniProt Q96GZ6),inactive: -0.006
5,SLFN14 (UniProt P0C7P3),inactive: 0.043
6,SLCO4A1 (UniProt Q96BD0),active: -0.687
7,SLC35A1 (UniProt P78382),inactive: -0.087
8,SLC66A2 (UniProt Q8N2U9),inactive: -0.064

# Compound: C[C@@H](Oc1cc(-c2cnn(C3CCNCC3)c2)cnc1N)c1c(Cl)ccc(F)c1Cl [crizotinib]
# Test: as above
# Method in brief: as §1
row,Target,log2 fold change
1,SLC39A8 (UniProt Q9C0K1),inactive: -0.074
2,SLC66A3 (UniProt Q8N755),inactive: -0.11
3,SLC35B1 isoform 2 (UniProt P78383),inactive: -0.038
4,SLC35A3 isoform 2 (UniProt Q9Y2D2),inactive: -0.267
5,SLC25A16 (UniProt P16260),inactive: 0.014
6,SMAD5 (UniProt Q99717),inactive: -0.017
7,SLC25A35 (UniProt Q3KQZ1),inactive: -0.009
8,SLC25A36 (UniProt Q96CQ1),inactive: 0.022
9,SLC40A1 (UniProt Q9NP59),inactive: 0.111
10,SLU7 (UniProt O95391),inactive: 0.054
11,SLC23A2 (UniProt Q9UGH3),inactive: 0.051
12,SLC26A11 (UniProt Q86WA9),inactive: 0.028
13,SLC9B2 (UniProt Q86UD5),inactive: -0.038
14,SLC41A1 (UniProt Q8IVJ1),inactive: 0.141
15,SMAD3 (UniProt P84022),inactive: -0.075
16,SLC39A6 (UniProt Q13433),inactive: 0.094
17,SMAGP (UniProt Q0VAQ4),inactive: 0.129
18,SLFN14 (UniProt P0C7P3),inactive: 0
19,SLC35D1 (UniProt Q9NTN3),inactive: -0.073
20,SLC35A1 (UniProt P78382),inactive: -0.223
21,SLC29A3 (UniProt Q9BZD2),inactive: 0.001
22,SLC50A1 (UniProt Q9BRV3),inactive: -0.469
23,SLC25A28 (UniProt Q96A46),inactive: 0.164
24,SLC25A23 isoform 3 (UniProt Q9BV35),inactive: -0.049

# Compound: C[C@H](C1=CC=C(C=C1)C(=O)NC2=C3C=CNC3=NC=C2)N
# Test: as above
# Method in brief: as §1
row,Target,log2 fold change
1,SLC46A1 (UniProt Q96NT5),inactive: -0.032
2,SLC39A8 (UniProt Q9C0K1),inactive: -0.115
3,SLC25A39 (UniProt Q9BZJ4),inactive: -0.22
4,SLCO2B1 (UniProt O94956),inactive: 0.067
5,SLC35B1 isoform 2 (UniProt P78383),inactive: -0.271
6,SLC35A3 isoform 2 (UniProt Q9Y2D2),active: -1.02
7,SLC25A16 (UniProt P16260),inactive: 0.059
8,SMAD5 (UniProt Q99717),inactive: 0.056
9,SLC25A35 (UniProt Q3KQZ1),inactive: -0.089
10,SLC25A36 (UniProt Q96CQ1),inactive: 0.029
11,SLC44A1 (UniProt Q8WWI5),inactive: -0.22
12,SLC40A1 (UniProt Q9NP59),inactive: -0.164
13,SLU7 (UniProt O95391),inactive: -0.187
14,SLC23A2 (UniProt Q9UGH3),inactive: -0.171
15,SLC26A11 (UniProt Q86WA9),inactive: -0.083
16,SLC41A3 isoform 9 (UniProt Q96GZ6),inactive: -0.363
17,SLC41A1 (UniProt Q8IVJ1),inactive: -0.09
18,SLC2A13 (UniProt Q96QE2),inactive: -0.104
19,SLC39A6 (UniProt Q13433),inactive: -0.007
20,SMAGP (UniProt Q0VAQ4),inactive: -0.145
21,SLFN14 (UniProt P0C7P3),inactive: -0.137
22,SLCO4A1 (UniProt Q96BD0),inactive: 0.016
23,SLC35A1 (UniProt P78382),inactive: -0.088
24,SLC29A3 (UniProt Q9BZD2),inactive: -0.006
25,SLC50A1 (UniProt Q9BRV3),inactive: -0.256
26,SLC25A23 isoform 3 (UniProt Q9BV35),inactive: 0.147
27,SLC8B1 (UniProt Q6J4K2),inactive: -0.113
